Patent publication US20100003239A1
No constants are given. Whether binding was seen depends on the method and setting. Some entries that bind do so weakly or less than the wild type.

Chains of the proteins cited; added tags and fusions are not shown. Residues count along the entry.
UniProt Q14623, residues 28-411: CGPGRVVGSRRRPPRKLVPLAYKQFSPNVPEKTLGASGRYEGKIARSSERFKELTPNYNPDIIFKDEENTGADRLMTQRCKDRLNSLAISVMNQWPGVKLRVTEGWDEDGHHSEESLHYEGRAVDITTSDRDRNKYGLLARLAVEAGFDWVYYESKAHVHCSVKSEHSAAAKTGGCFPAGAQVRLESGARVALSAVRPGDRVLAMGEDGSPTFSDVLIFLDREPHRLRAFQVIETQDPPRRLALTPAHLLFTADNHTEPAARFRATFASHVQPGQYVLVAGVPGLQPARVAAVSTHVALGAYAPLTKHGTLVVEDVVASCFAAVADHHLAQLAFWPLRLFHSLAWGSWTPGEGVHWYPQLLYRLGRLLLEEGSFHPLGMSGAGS
UniProt Q62226, residues 25-198: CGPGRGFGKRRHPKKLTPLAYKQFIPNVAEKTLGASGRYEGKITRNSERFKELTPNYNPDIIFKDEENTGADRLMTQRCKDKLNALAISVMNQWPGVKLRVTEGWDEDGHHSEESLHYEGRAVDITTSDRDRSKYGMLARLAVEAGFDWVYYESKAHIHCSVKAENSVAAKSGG

Tests used:
[1] = biological target: untagged full-length human Ihh (NP-002172) (human) (UniProt Q14623); experiment: immunofluorescence on COS cells transfected with full length human Ihh
[2] = biological target: endogenous mouse Hh (Shh) in mouse embryo and skin tissue (mouse) (UniProt Q62226); experiment: IHC on 4-week mouse skin, anagen hair follicles
[3] = biological target: untagged full-length human Ihh (NP-002172) (human) (UniProt Q14623); experiment: IF, IHC (data not shown) and Western blotting of transfected full-length clones
mouse Shh-N (mouse) = mouse Shh-N (mouse) (UniProt Q62226); experiment: IF, IHC and Western blotting (data not shown)
[4] = biological target: endogenous mouse Hh (Shh) in mouse embryo and skin tissue (mouse) (UniProt Q62226); experiment: IHC on mouse skin (endogenous Shh)
[5] = biological target: untagged full-length human Ihh (NP-002172) (human) (UniProt Q14623); experiment: Western blot of 293 cells transfected with human Ihh full length protein
[6] = biological target: endogenous mouse Hh (Shh) in mouse embryo and skin tissue (mouse) (UniProt Q62226); experiment: IHC on FFPE mouse embryo sections
[7] = biological target: endogenous mouse Hh (Shh) in mouse embryo and skin tissue (mouse) (UniProt Q62226); experiment: IHC on mouse embryo sections

Measured: binding

B1: 95.9 rabbit monoclonal anti-Hh antibody (antibody, V domains shown)
VH: QSVKESGGGLVQPEGSLTLTCTVSGFSLSSYDMSWVRQAPGSGLEWIGGILSGGSAYYASWAKSRSTITKNTNLNTVTLKMTSLTAADTATYFCARGIYPVGTNYNIWGPGTLVTVSS
VL: IAVLTQTPSPVSAAVGGTVTINCQSSPSVYSNYLAWYQQKPGQPPKLLIYYASTLASGVPSRFKGSGSGTEFTLTISDLECADAATYYCAGGYIDTSDTAFGGGTEVVVKG
binds: [1] | [2] | [3] | mouse Shh-N (mouse) | [4] | [5] | [6] | [7]
